Results published in paper PMC8563733, “The transcriptional corepressor CtBP2 serves as a metabolite sensor orchestrating hepatic glucose and lipid homeostasis” (Nature Communications, 2021).
These are yes or no findings as the source states them, for the method shown. Binding seen in cells or lysates may run through a third protein. Binding can be weak; no strength is given.

The chains behind the UniProt entries cited, without tags or fusion partners. Where a name states a change or a piece, a line headed by the entry shows the natural chain unless it says otherwise.
UniProt Q9R1E0: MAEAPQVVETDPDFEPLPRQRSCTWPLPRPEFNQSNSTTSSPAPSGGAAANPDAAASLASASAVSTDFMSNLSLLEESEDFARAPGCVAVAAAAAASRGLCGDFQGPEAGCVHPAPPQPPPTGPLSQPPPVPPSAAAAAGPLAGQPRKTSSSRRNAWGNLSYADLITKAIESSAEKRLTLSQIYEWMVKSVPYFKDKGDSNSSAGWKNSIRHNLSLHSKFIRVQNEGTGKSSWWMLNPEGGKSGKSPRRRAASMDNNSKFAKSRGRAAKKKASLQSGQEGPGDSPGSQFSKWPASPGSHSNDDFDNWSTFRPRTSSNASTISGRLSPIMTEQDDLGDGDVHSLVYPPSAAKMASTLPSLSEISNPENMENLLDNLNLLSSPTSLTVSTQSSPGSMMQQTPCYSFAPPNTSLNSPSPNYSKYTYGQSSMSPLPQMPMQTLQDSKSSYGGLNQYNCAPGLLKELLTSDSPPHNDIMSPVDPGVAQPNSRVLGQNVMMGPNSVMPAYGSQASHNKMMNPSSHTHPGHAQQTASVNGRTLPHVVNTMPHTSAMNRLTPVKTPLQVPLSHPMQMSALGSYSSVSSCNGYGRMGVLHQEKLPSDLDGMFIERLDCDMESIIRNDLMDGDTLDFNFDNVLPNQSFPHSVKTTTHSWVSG
UniProt P35222: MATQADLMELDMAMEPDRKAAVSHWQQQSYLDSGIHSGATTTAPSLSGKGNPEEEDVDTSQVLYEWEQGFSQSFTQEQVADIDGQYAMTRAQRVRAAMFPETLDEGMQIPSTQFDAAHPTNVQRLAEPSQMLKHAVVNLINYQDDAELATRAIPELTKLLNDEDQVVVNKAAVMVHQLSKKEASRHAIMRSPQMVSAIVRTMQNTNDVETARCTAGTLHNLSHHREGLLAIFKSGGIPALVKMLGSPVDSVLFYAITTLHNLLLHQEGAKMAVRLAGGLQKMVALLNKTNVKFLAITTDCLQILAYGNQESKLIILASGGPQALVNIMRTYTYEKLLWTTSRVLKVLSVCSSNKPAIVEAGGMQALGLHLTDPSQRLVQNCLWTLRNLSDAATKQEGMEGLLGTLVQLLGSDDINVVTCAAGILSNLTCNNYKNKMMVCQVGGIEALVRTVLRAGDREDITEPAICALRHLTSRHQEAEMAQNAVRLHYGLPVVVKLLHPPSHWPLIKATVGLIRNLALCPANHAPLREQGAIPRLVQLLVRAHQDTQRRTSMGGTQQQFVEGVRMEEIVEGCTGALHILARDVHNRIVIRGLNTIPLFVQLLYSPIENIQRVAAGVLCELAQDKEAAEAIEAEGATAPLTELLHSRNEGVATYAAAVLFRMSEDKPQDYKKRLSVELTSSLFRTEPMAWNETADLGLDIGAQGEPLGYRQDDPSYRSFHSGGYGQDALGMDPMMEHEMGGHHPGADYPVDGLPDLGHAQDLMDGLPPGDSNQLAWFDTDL

Tests used:
[1] = target: NR5A2(LRH-1) with the PSDL motif deleted (UniProt P45448); experiment: co-IP; HEK293 cells expressing CtBP2 and NR5A2(LRH-1), wild type or mutated in the PSDL motif; which protein was precipitated not given
[2] = target: NR5A2(LRH-1) with the PSDL motif mutated to PSAS (UniProt P45448); experiment: as above
[3] = target: FLAG FoxO1 with the PSDL motif deleted (UniProt Q9R1E0); experiment: co-IP; HEK293 cells transfected with FLAG-FoxO1 (wild type or mutated) and CtBP1 or CtBP2; FLAG M2 magnetic beads, buffer A with 0.5% NP40, 4 h at 4 °C, eluted with 3x FLAG peptide; in some panels NADH, oleoyl-CoA, acetyl-CoA or sodium oleate added to the lysates (8 h at 4 °C), or cells treated with lactate/pyruvate, koningic acid or palmitate-BSA with ACSL1
[4] = target: FLAG FoxO1 with the PSDL motif mutated to PSAS (UniProt Q9R1E0); experiment: as above

Measured: binding

C-terminal binding protein 2 (CtBP2) (from UniProt P56545 1-445)
binds: all assays above

β-catenin (from UniProt P35222 1-781)
binds: [3] | [4]
